42 sequences from publication PMC7819943, “Rice protein-binding microarrays: a tool to detect cis-acting elements near promoter regions in rice” can be followed below.

Some of the results follow.

The test addresses T1, OsSMF1 (Oryza sativa, UniProt Q6ZLB0 1-436).
T1 sequence: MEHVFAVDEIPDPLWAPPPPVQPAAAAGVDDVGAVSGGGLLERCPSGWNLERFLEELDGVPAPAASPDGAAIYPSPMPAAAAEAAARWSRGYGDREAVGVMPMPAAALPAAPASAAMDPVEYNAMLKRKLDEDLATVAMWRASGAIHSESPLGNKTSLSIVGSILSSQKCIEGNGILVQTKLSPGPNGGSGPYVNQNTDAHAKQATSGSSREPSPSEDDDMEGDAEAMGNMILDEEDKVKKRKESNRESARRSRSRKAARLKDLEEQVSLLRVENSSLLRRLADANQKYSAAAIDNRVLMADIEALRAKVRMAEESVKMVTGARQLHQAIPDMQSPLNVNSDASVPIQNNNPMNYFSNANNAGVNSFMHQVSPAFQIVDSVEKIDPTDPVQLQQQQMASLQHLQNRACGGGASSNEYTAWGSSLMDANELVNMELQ
Nature of the test: protein-binding microarray (RPBM); PBS, 2% BSA, 51.3 ng/ul salmon testes DNA, 50 uM zinc acetate, 200 nM TF, 25 C, 1 h; high values mean tight binding. To be noted: protein: recombinant; tags: N-terminal polyhistidine and DsRed monomer fusion (pET32a); chain copies: 2; label: CyDye5-dUTP incorporated in the synthesized complementary strand; 3' TTTTT single-stranded linker to array surface; dsDNA, one strand shown. In short, it runs like this:
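Polyhistidine-tagged DsRed fusions of transcription factors, joined at the N-terminus, were expressed in E. coli BL21-CodonPlus and isolated on Ni–NTA. They were incubated at 200 nM for 1 h at 25 °C on a custom Agilent array, double-stranded and BSA-blocked, in PBS with 2% BSA, salmon testes DNA and 50 µM zinc acetate. The binding signal is per-feature fluorescence intensity (arbitrary units) read on an Axon 4000B scanner after washing.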
“TTCTTTATTCTTCCAAGCTGATCGGACGAAAATGCCCCTGCGGAGTCACCTAGTGCAG”: the binding signal is 3560 fluorescence intensity (a.u.).
As for “GTGGCTGGTGCTTGTATTGTGGTCATGGCGGATCGCTGCCCGGAGTCACCTAGTGCAG”, the binding signal is 3520 fluorescence intensity (a.u.).
With “ACTTAACTAATTATACGCTAATGACACATCTCACGCCTCCCGGAGTCACCTAGTGCAG” the figure was 4290 fluorescence intensity (a.u.); with “GCCACATCGCTCTCAGCCAGCGTTTCCAAGCGAGGAGGTACGGAGTCACCTAGTGCAG”, 3150 fluorescence intensity (a.u.).
Regarding “AGAGGAGGGGAAAGAGATAGGGTGATGACGTGGAATCCTGCGGAGTCACCTAGTGCAG”, the binding signal was 25900 fluorescence intensity (a.u.).
The value for “ACATATCTGGTGGTTGGACTAGATGAAGAAGGAAGGAGGTCGGAGTCACCTAGTGCAG” was 12500 fluorescence intensity (a.u.); that for “TGAAAATATATTCAATTATTGATTCGATAAAACTAATTTACGGAGTCACCTAGTGCAG” was 3460 fluorescence intensity (a.u.).
The value for “GGTGTCCGCCATTTCTGCGTCACCGTCTGCCACTGCAAAACGGAGTCACCTAGTGCAG” was 7660 fluorescence intensity (a.u.).
For “TCGATACAGCTAATACCCGACCGCAACGTGGCGCGCTGACCGGAGTCACCTAGTGCAG”, the binding signal was 7540 fluorescence intensity (a.u.).
Turning to “TGCATCACACGTACACATCTATCCATCGATCCAGTCCGCCCGGAGTCACCTAGTGCAG”, the binding signal was 4610 fluorescence intensity (a.u.).
With “GTGCGGAGGCCCATCAAATGCAGCCCAGCCCAGGGAGGTCCGGAGTCACCTAGTGCAG” the figure was 30500 fluorescence intensity (a.u.).
With “GTTAAATTCGAGGGGTTTCTTGTAATTTCGGGGTGGATAACGGAGTCACCTAGTGCAG” the figure was 3920 fluorescence intensity (a.u.); with “TGCTGTGTATAGACGTGTCCCTTTTGTTGGTACACGCCCACGGAGTCACCTAGTGCAG”, 4620 fluorescence intensity (a.u.).
With “ACATCTCCACACCGCCACTCGCCAAGTCGTCGCCGCCGCCCGGAGTCACCTAGTGCAG” the figure was 22600 fluorescence intensity (a.u.); with “ACTTTACGAGTATAAAGCTCCGCATCATCCTCAAAGCAGGCGGAGTCACCTAGTGCAG”, 3660 fluorescence intensity (a.u.).
Regarding “GTTGCTTGGACTCGGGCCGTGACAGACGTGACGCTTCCCTCGGAGTCACCTAGTGCAG”, the binding signal was 4100 fluorescence intensity (a.u.).
With “ATGTACTTGATGGAGAACAGTGGCAGCCTTAAGGATCAGACGGAGTCACCTAGTGCAG”, the binding signal was 11800 fluorescence intensity (a.u.).
With “GAGTCGAGCAGCGCGTCGGCGAGCGCGGACACGAGGTTGGCGGAGTCACCTAGTGCAG” the figure was 3420 fluorescence intensity (a.u.); with “AGAGGAGCCCTCGCGTCGGCAAAACCGACGTGACGTGGACCGGAGTCACCTAGTGCAG”, 30700 fluorescence intensity (a.u.); with “CGGCAGCGAGAGGCCGGCCACGCACGCACGCACGTCGAAGCGGAGTCACCTAGTGCAG”, 6430 fluorescence intensity (a.u.).
The value for “TAGTTTTCTGCAACTTGAACCATAAAACATGTAGTTTTATCGGAGTCACCTAGTGCAG” was 3910 fluorescence intensity (a.u.); that for “CACAAGCATATGCTCGAAATGCAATGGCGCCTGACGTGTACGGAGTCACCTAGTGCAG” was 13600 fluorescence intensity (a.u.); that for “GCCTATTCGCGCCACCCACATCACGCCCCTACTCGAACATCGGAGTCACCTAGTGCAG” was 3500 fluorescence intensity (a.u.).
As to “TCCGCCACCCAACACAGCAGCAGCTGCCACGTGCTCGCGCCGGAGTCACCTAGTGCAG”, the binding signal is 4720 fluorescence intensity (a.u.).
With “TCCGTTGAGATCAGCACTTTCTAGCAGCTGTACAAGAGACCGGAGTCACCTAGTGCAG” the figure was 3740 fluorescence intensity (a.u.); with “ATCATTAACCGCGTCTTATTATTGTATTTATTTAGTATTACGGAGTCACCTAGTGCAG”, 22200 fluorescence intensity (a.u.).
The value for “TGATCATAATACACGCACTACAACGTGGGAGCATCCATGTCGGAGTCACCTAGTGCAG” was 3940 fluorescence intensity (a.u.); that for “TTATTTGCACTGGTTTTGAAAATTGAGGAACACGTCATATCGGAGTCACCTAGTGCAG” was 13500 fluorescence intensity (a.u.); that for “CCACCACCACCTCACCACGACACCACTCCCCATGTCTAATCGGAGTCACCTAGTGCAG” was 4710 fluorescence intensity (a.u.).
With “GGTCACACACCATAAGGGCATGCATGTCAGCAGCTGGTCACGGAGTCACCTAGTGCAG”, the binding signal was 5290 fluorescence intensity (a.u.).
As to “TTATATTGCAGAGACTTCTCCTTCGCGAATACGTGGGACACGGAGTCACCTAGTGCAG”, the binding signal was 4510 fluorescence intensity (a.u.).
The value for “TCTGATGTGGTGGCAGCCAATCCATTCTTTCCTAGTGGCACGGAGTCACCTAGTGCAG” was 5000 fluorescence intensity (a.u.); that for “TCCTTGTGCGCCTGAGTATCCCTTGCTGCCAGATCACTTACGGAGTCACCTAGTGCAG” was 4980 fluorescence intensity (a.u.); that for “CCACTGGAGCCACCTCATCACTGACCTCCCACCACCATTACGGAGTCACCTAGTGCAG” was 7740 fluorescence intensity (a.u.).
With “TACAATAAATCCCATCCAATCCAAGGGACAATTTGAATCACGGAGTCACCTAGTGCAG” the figure was 5730 fluorescence intensity (a.u.); with “TATGAAGTGCTGACTCGTAGTCGACGCCAGGGTAGCCTTCCGGAGTCACCTAGTGCAG”, 6010 fluorescence intensity (a.u.); with “CATACTGCCCTCTAACATGGATCACTAACATATAGGCCCACGGAGTCACCTAGTGCAG”, 24100 fluorescence intensity (a.u.).
The value for “AATGTGTCCCGTATCCCGTAGCTAATTAATATGTTTTCACCGGAGTCACCTAGTGCAG” was 3240 fluorescence intensity (a.u.); that for “GCGGCGTCCCGTCACGGCATATCGGTCCGAAATGGTGCGCCGGAGTCACCTAGTGCAG” was 3450 fluorescence intensity (a.u.); that for “GGACCATTAACGATTTAATACACTGACACACACACACATACGGAGTCACCTAGTGCAG” was 3210 fluorescence intensity (a.u.).
Consider “GCTACTCCTAGTACAGGTTAGACAAGAAACAGACCAAGAACGGAGTCACCTAGTGCAG”, for which the binding signal was 3310 fluorescence intensity (a.u.).
Consider “TTACCCTCCGATCCGAATAAGCCCTAAGGCTAGTAGGCGACGGAGTCACCTAGTGCAG”, for which the binding signal is 18400 fluorescence intensity (a.u.).
